Source: article PMC10904854

Sequences of proteins named here, by UniProt entry; tags and fusion partners are left off. A change or cut given only in a name is not applied to a line headed by its entry.
UniProt P20226: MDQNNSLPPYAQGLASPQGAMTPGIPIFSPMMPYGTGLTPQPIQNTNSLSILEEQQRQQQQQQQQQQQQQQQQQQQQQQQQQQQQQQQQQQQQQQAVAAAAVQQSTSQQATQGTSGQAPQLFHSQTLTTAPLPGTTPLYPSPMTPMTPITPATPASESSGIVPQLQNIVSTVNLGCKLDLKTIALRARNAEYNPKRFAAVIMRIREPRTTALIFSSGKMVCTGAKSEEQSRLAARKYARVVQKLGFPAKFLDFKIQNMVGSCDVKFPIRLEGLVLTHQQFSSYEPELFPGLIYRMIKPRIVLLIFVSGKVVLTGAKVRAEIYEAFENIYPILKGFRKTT
UniProt P01106: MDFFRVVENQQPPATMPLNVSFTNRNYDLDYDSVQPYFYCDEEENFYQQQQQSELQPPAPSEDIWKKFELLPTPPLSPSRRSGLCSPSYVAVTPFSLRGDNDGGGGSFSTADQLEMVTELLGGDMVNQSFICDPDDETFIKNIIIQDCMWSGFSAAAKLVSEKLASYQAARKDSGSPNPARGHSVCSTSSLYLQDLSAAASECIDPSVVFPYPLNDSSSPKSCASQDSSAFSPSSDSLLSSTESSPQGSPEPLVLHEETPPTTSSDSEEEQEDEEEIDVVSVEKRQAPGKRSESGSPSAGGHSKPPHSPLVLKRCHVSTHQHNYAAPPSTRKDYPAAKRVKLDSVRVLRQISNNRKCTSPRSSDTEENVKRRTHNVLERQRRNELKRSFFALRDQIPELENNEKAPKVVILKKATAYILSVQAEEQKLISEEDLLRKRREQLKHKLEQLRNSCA

Molecular target: TATA-box binding protein (endogenous, SH-SY5Y cells) (human (endogenous in SH-SY5Y)) (UniProt P20226)
Assay: proximity ligation; in situ PLA (Duolink) on fixed SH-SY5Y cells, endogenous proteins, nuclear puncta counted; cells untreated or treated with EGCG (25-100 uM) for 24 h

- binding: binds
Substance: c-MYC (endogenous, SH-SY5Y cells) (from UniProt P01106)

Results are given in words; binding and its absence hold for the method and conditions named. Binding seen in cells or lysates may run through a third protein. Binding can be weak; no strength is given.
